Test results reported in patent US20230407401A1.
Results are given in words; binding and its absence hold for the method and conditions named. For part of these data: Binding seen in cells or lysates may run through a third protein. Some results given as binding are weak or reduced against the parent protein; the word gives no strength.

The chains behind the UniProt entries cited, without tags or fusion partners.
UniProt Q13547: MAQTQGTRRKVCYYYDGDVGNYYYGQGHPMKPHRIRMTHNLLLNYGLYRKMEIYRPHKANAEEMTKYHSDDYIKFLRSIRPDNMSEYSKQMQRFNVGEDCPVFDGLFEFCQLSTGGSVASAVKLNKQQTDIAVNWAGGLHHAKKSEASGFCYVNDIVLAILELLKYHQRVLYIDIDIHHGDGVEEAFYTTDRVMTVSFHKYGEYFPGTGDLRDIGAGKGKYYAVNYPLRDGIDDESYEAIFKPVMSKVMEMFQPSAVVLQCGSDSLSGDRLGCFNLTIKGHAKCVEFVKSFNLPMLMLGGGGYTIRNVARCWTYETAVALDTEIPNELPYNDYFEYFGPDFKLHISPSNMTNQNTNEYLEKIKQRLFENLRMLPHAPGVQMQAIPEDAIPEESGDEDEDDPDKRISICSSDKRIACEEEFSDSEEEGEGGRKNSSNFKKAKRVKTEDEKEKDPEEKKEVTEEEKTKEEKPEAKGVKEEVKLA
UniProt P84022: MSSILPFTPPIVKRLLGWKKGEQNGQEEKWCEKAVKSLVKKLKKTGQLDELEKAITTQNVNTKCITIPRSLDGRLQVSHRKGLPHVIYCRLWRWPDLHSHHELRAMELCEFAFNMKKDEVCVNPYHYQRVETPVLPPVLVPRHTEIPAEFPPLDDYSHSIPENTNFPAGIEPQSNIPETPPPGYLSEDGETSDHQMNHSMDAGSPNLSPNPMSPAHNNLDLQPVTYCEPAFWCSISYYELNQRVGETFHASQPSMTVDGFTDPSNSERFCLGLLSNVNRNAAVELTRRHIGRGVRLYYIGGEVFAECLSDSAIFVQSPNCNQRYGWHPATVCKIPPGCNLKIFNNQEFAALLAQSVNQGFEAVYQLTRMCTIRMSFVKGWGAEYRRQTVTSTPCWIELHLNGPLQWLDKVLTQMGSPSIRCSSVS
UniProt P54132: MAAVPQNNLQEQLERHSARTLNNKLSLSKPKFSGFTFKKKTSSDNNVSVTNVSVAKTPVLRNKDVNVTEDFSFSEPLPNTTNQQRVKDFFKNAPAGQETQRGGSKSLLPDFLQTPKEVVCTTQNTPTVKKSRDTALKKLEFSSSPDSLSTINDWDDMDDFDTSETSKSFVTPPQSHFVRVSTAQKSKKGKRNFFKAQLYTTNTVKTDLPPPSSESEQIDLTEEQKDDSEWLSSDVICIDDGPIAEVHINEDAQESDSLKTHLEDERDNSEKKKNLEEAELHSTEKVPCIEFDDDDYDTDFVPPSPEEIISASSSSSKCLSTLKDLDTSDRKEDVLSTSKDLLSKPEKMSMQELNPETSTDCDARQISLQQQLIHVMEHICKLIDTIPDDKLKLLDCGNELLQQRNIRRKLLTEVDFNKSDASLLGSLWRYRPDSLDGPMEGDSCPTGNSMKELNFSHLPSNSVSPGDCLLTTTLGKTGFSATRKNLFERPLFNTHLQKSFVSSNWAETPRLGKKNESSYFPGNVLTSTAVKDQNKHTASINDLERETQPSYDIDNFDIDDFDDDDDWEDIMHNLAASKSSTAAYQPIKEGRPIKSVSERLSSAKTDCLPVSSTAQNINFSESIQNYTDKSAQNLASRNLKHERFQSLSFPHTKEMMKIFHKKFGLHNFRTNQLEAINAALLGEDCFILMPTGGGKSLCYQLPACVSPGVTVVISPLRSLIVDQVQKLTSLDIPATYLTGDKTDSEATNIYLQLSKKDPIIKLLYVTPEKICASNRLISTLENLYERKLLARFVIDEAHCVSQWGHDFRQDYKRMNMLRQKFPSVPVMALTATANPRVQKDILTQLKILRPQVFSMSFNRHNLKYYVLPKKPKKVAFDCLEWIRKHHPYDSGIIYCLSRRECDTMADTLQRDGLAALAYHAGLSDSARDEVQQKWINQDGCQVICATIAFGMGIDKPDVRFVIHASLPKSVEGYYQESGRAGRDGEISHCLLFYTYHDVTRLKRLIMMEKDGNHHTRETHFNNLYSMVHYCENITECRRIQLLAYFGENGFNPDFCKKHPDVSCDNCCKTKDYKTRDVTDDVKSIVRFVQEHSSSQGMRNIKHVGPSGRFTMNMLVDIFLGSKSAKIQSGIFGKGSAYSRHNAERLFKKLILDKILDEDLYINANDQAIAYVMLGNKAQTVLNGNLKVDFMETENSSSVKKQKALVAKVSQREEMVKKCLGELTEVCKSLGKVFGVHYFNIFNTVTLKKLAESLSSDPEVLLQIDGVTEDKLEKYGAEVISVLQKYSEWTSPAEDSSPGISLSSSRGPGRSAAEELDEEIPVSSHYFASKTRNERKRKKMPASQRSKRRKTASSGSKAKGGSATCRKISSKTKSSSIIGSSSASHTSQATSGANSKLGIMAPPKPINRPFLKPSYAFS

How the values were obtained:
HDAC1 [1] = target: HDAC1 (UniProt Q13547); test: co-immunoprecipitation from HCT116 lysates, western blot
SMAD3 [2] = target: SMAD3 (UniProt P84022); test: as above
HDAC1 [3] = target: HDAC1 (UniProt Q13547); test: co-immunoprecipitation (anti-BLM) from transfected HCT116 cells, western blot
SMAD3 [4] = target: SMAD3 (UniProt P84022); test: as above
GST HDAC1 (WT) [5] = target: GST HDAC1 (WT) (UniProt Q13547); test: in vitro GST pull-down of 35S-labelled BLM, autoradiography
GST HDAC1 (WT) [6] = target: GST HDAC1 (WT) (UniProt Q13547); test: in vitro interaction of S35 methionine radiolabelled BLM with bound GST HDAC1, autoradiography

binding (HDAC1 [1])	binding (SMAD3 [2])	binding (HDAC1 [3])	binding (SMAD3 [4])	binding (GST HDAC1 (WT) [5])	binding (GST HDAC1 (WT) [6])	Substance
binds	binds	binds	binds			BLM helicase, in HCT116 cells / immunoprecipitated BLM (from UniProt P54132 1-1417) (enzyme)
				binds	binds	S35 methionine radiolabelled BLM (in vitro translated) (from UniProt P54132 1-1417) (enzyme)
